The values that follow come from PubChem BioAssay AID1347423 (Functional Genomics Laboratory (NCATS/FGL), 2020).

The campaign covered roughly 52,000 sequences. About 210 (0.4%) were called active.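 The calls were made as follows: active = gene whose silencing raises cell survival under the drug, median off-target-corrected z-score across its silencing RNAs 2 or more; inactive = the rest.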 This is one part of the list.

The test can be described thus: Resistance to Poly (ADP-Ribose) Polymerase inhibitor: Gene Identification via Genome-wide siRNA Screen. The following applies: mouse BRCA2 R2336H ES cells, olaparib, CellTiter-Glo viability; active compounds read high. The essentials:
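Mouse BRCA2 R2336H ES cells were reverse-transfected with siRNA (20 nM final), treated at 48 h with 500 nM olaparib, and read by CellTiter-Glo after 72 h. Scores: MAD-based z per siRNA, median per gene, seed off-target correction.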
For orientation: ATP-based viability assays read luminescence as a measure of living cells.
Regarding GGAACUUGUUUCAUAUCGUTT against Scfd1, the z-score was inactive: 0.363.
Consider GUGAGUUCUAGAACAGCUATT against BC043934, for which the z-score is inactive: 0.854.
Then “GCCAAAGUAGUUGAACCUUTT against 6720467C03Rik”, with inactive: 0.27; and GGGCACUCAAGUGUAUGUCTT against Hpxn, with inactive: 0.0938.
Then “GGUGGACCAAAAAGAACUUTT against 4933417A18Rik”, with inactive: -0.944.
Then GGCCUUUGUACAGGACCCATT against Tor2a, with inactive: -0.249.
As to GGAAGGAGAAAGAGUAUGATT against Mnt, the z-score was inactive: 0.429.
For GGAUGUGAGCACAUCUUCUTT against Bard1, the z-score was inactive: -1.87.
Then GGACAGGCUUACUUCCUGATT against BC052055, with inactive: -0.189; and CCAAUUUACGACAAAUCGUTT against Entpd4, with inactive: -0.269; and GGAUGACUUCACUAAGAUUTT against Dpys, with inactive: 0.568.
Next, GCCAAUAAACCCGUUUUUATT against Fxc1: inactive: 2.92; “GGCUAAUUCUCAAAGAGAUTT against 4930588M11Rik”: inactive: -1.23.
Next, GGGUAUGGCAUAAAUGUCCTT against Zpbp: inactive: -0.562; CGGAGACACCUACAUAUGUTT against LOC378878: inactive: -0.0445; CCACGAAAACGUGAAAUAUTT against Gpd1l: inactive: -0.21.
As to GCUGCUCAAGUUGUGGUGATT against Sdh1, the z-score was inactive: 0.805.
Then CGCUGUUAUGGUUACCAUATT against Myoc, with inactive: 0.411; and “GGAAAAUUCAGGAAGUUUGTT against 6530407C02Rik”, with inactive: 0.332.
For GGUCAGCGUGGAGUCAAUATT against AB041544, the z-score was inactive: 0.388.
Next, GGCUCAGAAAGAAGAACUUTT against Pbxip1: inactive: -1.4.
Then GGUAGCAGUUGCUUUAAUATT against Siah2, with inactive: -0.19; and GGUACAGGAAAAAAGAAGATT against Msl31, with inactive: -0.435; and GGGUUAUGACAAGAUGGCUTT against Olfr1440, with inactive: 0.979.
Regarding “GGCUAGCUUGGUUCAUUUATT against 2010001O09Rik”, the z-score is inactive: 0.61.
In the case of GGGCAGCUGGUCAAAAGUCTT against AI875199, the z-score is inactive: -0.433.
Next, GGUGCUGUUUAAAACACAGTT against Stk6: inactive: -0.521; GGUCCUCCAGUUAAUGUCATT against Glra3: inactive: -0.127; GGCGCAGAUGAAGAAUCCGTT against Stxbp1: inactive: 0.785.
Then CCAUUAUGCGUCAAGGCCUTT against Olfr1231, with inactive: -0.935; and GCGUACGAGCGAAGGAUACTT against Cdc42bpb, with inactive: -0.209.
Next, GCCUAUAUCCAUGCACUGGTT against Frg1: inactive: 0.112.
In the case of CGCAUGUGGAAAUGUAACATT against Kbtbd4, the z-score is inactive: -0.472.
Then CGGGUGAUGUCAAGUUACUTT against Amy1, with inactive: 0.492; and GGUGUGGAUGUGGUUUUAUTT against Atp5l, with inactive: 0.466.
Next, GGGCAUUGUCAUGGAGAAUTT against Clstn3: inactive: -2.8.
Next, GGCAGAGGCCUUGUGUUUATT against Piwil2: inactive: 0.818; CGGAGUUGAGCCAGAAAAATT against Fbxo31: inactive: 0.575; GGUGAAGUCUGUGAGCAUUTT against Gna12: inactive: -1.55.
In the case of GGAGAUUGGUGUUAGUAACTT against Sp7, the z-score was inactive: 0.083.
Next, GGAAGAAAGAGAAAACCUCTT against Slc4a3: inactive: 1.2; GCAAUUCCUGGACAUUUAATT against Prkcd: inactive: 0.415; GACAUACCAGCCGUAUAACTT against Erh: inactive: -2.46.
Next, CCGAAAAGUGUGGCGAGAATT against Arid3c: inactive: -1.29; GGUGAAUGUGUGGAUUAUCTT against Itih2: inactive: 0.825.
Then “CCGGUCUCAAAAUUAAGAATT against E430004N04Rik”, with inactive: -0.0641; and GGACUCAGGGACCUUAUUATT against Apobec1, with inactive: -2.23; and GCACGAAUCCUUUGUAUCATT against Spna1, with inactive: -1.24.
As to “GGACACAGACAUGUAUAAUTT against 9430041O17Rik”, the z-score is inactive: -0.194.
Then “GCACAACAUCCCAGAUAAATT against C030011J08Rik”, with inactive: -0.302.
Then GGGUUUUGCAUUACACAAGTT against Notch3, with inactive: 0.339.
Next, “GGUUAUAGGAAGGAAUUGCTT against 4732456N10Rik”: inactive: 0.755; GGAGACUCUACUAAUCAUCTT against Pigh: inactive: 1.66; GUCUAGCACAUUCUUUGGCTT against Olfr1107: inactive: -0.712.
GGCAAGAAGUCUGACAACATT against Gng4: the z-score was inactive: -0.543.
Then GGCAAGAUCAAAGAGAAGATT against Psmc3ip, with inactive: -0.949; and GCCUGUAGUCAGAUAUUUCTT against Hdgf, with inactive: -0.0633; and GGGCAAUUUCAAACUAUUATT against Myf5, with inactive: 0.759.
In the case of GGAAUUUCUGCGCACCUAUTT against Catnbip1, the z-score is inactive: -0.104.
Take GCACUUAUCGACUAUUUCATT against Laf4: the z-score was inactive: -0.253.
Next, CCCACCACUAUUUAUAUGATT against Dlgh2: inactive: -0.134; GGUCAAAGUGAUGCACGCCTT against Sfxn2: inactive: -0.333.
Then GCAGAACCUUAAAAGAAUGTT against Cabyr, with inactive: 1.19.
Then GGAACAAUCAAACUGGCUGTT against Cdc2a, with inactive: -1.45.
Regarding GGAAGUCAAGCAUAUUGCCTT against Sntb2, the z-score is inactive: -0.593.
Then GGAGAAGGAGUGCAAUUCCTT against Ptger3, with inactive: -0.0412.
Then GGCCAAUAAUGUGUUUCGUTT against Tyki, with inactive: 1.1; and GGUUGUAUUAUUGGCUUUGTT against Snrpe, with inactive: 0.85.
Then CCAACAGCAACGAUGACAATT against Fmip, with inactive: -3.16; and GGGCUCUAGCUAAAAACGATT against D13Wsu50e, with inactive: 1.79.
For CCUACAUUAAGCAAGGGACTT against Stk35, the z-score is inactive: 0.66.
Next, CGGCAUCCAUCUUUAGUGUTT against Hrh1: inactive: 0.309; “GGAACUAGAAACUUCUUUUTT against B230382K22Rik”: inactive: 0.318.
Then CGAAUGUCCUGGAAGCAAATT against Olfr142, with inactive: -2.75.
Next, “GCCACAUUGCUUAUGGCUGTT against 2310016N21Rik”: inactive: 0.959; GGCAUGUUUCUUGACUUAATT against Coil: inactive: -1.59; GGUAUUUGUAAAUUUGAGGTT against Spg3a: inactive: -0.249.
For the sequence GGAUUUGUCACCAUUCUGCTT against Peg10, the z-score is inactive: 0.114.
Next, GCCGGUUAUUUAUUUGUCATT against Sostdc1: inactive: 0.288; “GGAAUUCACCUUUAAGAUGTT against 1810036H07Rik”: inactive: 0.639; GGGUAAAGGAGAUUGUGAUTT against Ppfibp2: inactive: -0.253.
Turning to GGAACCUAACUAACAAUACTT against Rab14, the z-score was inactive: 0.681.
Next, GGUUUUCUCUAAGCUGAAATT against Lum: inactive: 0.824; GGCUUGAGUUUGAAGAAAUTT against Rb1: inactive: 0.153; GGACAGGUGGUUACCAUAGTT against Arid2: inactive: -0.239.
Next, CCCAAGACUGGUCUUCCCATT against Slc12a8: inactive: -0.831; “GGCAGUAGUGAACAGAGACTT against 6330509G02Rik”: inactive: -0.359; GUCCUGGAUAUGCUCCUGUTT against Ors6: inactive: -0.875.
Then GGCCUAUUACAAGGAAUUCTT against BC020354, with inactive: 0.549; and GGACAACACAUUUGUGCUCTT against Aps, with inactive: -0.0534.
In the case of GGACGAUGUAUUGUUAUUGTT against Lrp10, the z-score was inactive: 0.267.
Next, GGAGAGCUCUUUACCUAAUTT against Gk-rs1: inactive: -0.116; “GGUGCUUCUCUAAGAUAAUTT against 4632434I11Rik”: inactive: 1.49.
Then GGAGUUGAUCAAGACAGAGTT against S100a5, with inactive: -0.443; and CGGUAGAACUAACGUGAUUTT against Irx2, with inactive: 0.9; and GGUAUCAGUCGUCUGGGAGTT against Tas2r118, with inactive: 0.986.
Regarding CCACACGUGUUGAACUUGATT against Dnm2, the z-score was inactive: -1.3.
Then CAAGUACAAGCAGUUGACCTT against BC061237, with inactive: -0.393.
Next, GGACUUGGGUUUCAAUUCCTT against Ddx27: inactive: 0.618; GGGAAUCAAUGAAGGAUUUTT against Calcrl: inactive: 1.26; GCCUUGAAGGACCACUAGATT against Itgb1bp1: inactive: 1.25.
Then GCUGAGGGUAAAACCGGAATT against BC045600, with inactive: -0.875; and “GGACGGGACUUACAUAGUGTT against 4933413G11Rik”, with inactive: 0.312; and GCCUUGACGAUAGAUUAUUTT against Irf2, with inactive: 0.387.
Consider GGCCCUCAUGAUUGCUAUGTT against Nek8, for which the z-score is inactive: -0.279.
